For some of these results: For at least one compound, name, drawing or mass did not settle the structure. Some entries share one result that the patent states for a list of compounds.
Key:
PPAR gamma = biological target: T1, PPAR gamma (Homo sapiens, UniProt P37231); test: PPAR gamma stimulating activity (PPAR-mediated gene expression), alone and with 9-cis retinoic acid; assay type: cell-based; settings: combination with 9-cis retinoic acid versus compound alone
T1 sequence (P37231 1-505): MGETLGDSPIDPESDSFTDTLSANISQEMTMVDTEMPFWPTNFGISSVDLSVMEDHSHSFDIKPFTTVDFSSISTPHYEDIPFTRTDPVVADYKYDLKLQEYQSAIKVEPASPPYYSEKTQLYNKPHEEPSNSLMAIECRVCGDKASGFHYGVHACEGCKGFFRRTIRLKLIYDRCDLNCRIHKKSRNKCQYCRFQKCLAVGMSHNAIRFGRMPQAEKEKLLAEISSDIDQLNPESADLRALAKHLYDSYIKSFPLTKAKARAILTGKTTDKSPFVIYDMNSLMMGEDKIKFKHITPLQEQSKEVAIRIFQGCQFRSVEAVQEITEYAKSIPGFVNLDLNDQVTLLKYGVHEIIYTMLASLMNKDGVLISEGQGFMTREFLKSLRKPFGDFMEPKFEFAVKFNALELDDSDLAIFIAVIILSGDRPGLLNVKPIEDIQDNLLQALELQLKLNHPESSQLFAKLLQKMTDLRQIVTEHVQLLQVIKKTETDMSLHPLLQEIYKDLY
Experimental: (§1) Female SCID beige mice were inoculated subcutaneously with 1×10^6 CX-1 human colon carcinoma cells. For 42 days 10 animals per group were orally treated with troglitazone, BM 13.1258 or BM 15.2054 (suspension in 0.5% methylcellulose). The development of tumor volume (measured in mm^3) was determined on day 45. Furthermore, following autopsy the lungs were histologically inspected for micrometastases. Inhibition of tumor growth and inhibition of number of pulmonal metastases were calculated as 100 minus tumor volume or number of metastases of the test group divided by that of the vehicle group expressed as a percentage. PPAR gamma stimulating activity of the compounds alone and in combination with the RXR specific agonist 9-cis retinoic acid were determined in accordance with a known method (Furnsinn, C., et al., Br. J. Pharmacol. 128 (1999) 1141-1148). The relative activation of PPAR-mediated gene expression is given as x-fold stimulation compared to DMSO-treated cells (activation=1).

[1] = test system: CX-1 human colon carcinoma cells; test: CX-1 human colon carcinoma xenograft in SCID beige mice: tumor volume and pulmonal micrometastases; assay type: in vivo
Experimental: as §1

Cc1oc(-c2cccs2)nc1CCOc1ccc(CC2SC(=O)NC2=O)c2sccc12 (stereo not shown) [BM 15.2054, 5-{4-[2-(5-Methyl-2-(thien-2-yl)oxazol-4-yl)-ethoxy]-benzo[b]thiophen-7-ylmethyl}-thiazolidine-2,4-dione]
Higher stimulation of PPAR gamma-mediated gene expression by combination with 9-cis retinoic acid than by the compound alone (PPAR gamma): 4-to 7 fold

Cc1c(C)c2c(c(C)c1O)CCC(C)(COc1ccc(CC3SC(=O)NC3=O)cc1)O2 (stereo not shown) [Troglitazone, troglitazone, reference compound]
Number of lung metastases compared to the vehicle group ([1]; Table 2): did not diminish the number of lung metastases | Effect on metastatic load ([1]; human xenograft models): did not show this effect

Cc1oc(-c2ccccc2)nc1CCOc1ccc(CC2SC(=O)NC2=O)c2sccc12 (stereo not shown) [BM 13.1258, 5-{4-[2-(5-Methyl-2-phenyloxazol-4-yl) -ethoxy]-benzo[b]thiophen-7-ylmethyl}-thiazolidine-2,4-dione]
Higher stimulation of PPAR gamma-mediated gene expression by combination with 9-cis retinoic acid than by the compound alone (PPAR gamma): 4-to 7 fold

Reference: patent US7323481B2, “Thiazolidinediones alone or in combination with other therapeutic agents for inhibiting or reducing tumour growth” (Hoffmann-La Roche Inc., priority 2001, dated 2008)
